Results on one substance are retold here after article PMC11040742.

These are yes or no findings as the source states them, for the method shown. Binding seen in cells or lysates may run through a third protein. Binding calls can cover weak binding; strength is not graded here.

For the assay, the target named is T1, nEYFP-OsNAR2.1 (rice (Oryza sativa)) (UniProt Q6ZI50).
T1 sequence: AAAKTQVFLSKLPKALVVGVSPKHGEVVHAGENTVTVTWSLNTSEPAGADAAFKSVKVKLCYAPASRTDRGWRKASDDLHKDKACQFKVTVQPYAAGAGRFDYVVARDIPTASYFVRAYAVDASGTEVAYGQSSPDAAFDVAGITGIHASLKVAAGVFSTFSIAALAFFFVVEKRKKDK
In words: split reporter; BiFC with split EYFP, transient expression in rice blade protoplasts.

“OsPLDα1-cEYFP (rice (Oryza sativa)) (enzyme)”: the binding result is reported as “binds”.
